{"source": "patent US20240316019A1", "about": "(Bayer Aktiengesellschaft, priority 2023, published 2024)", "system": "patients with acute non-cardioembolic ischemic stroke", "settings": "in vivo", "note": "“And” between values parts separate entries of the source, which are not always exact repeats. Equal entries are not always repeated.", "data": [{"smiles": "CC[C@@H](C(=O)Nc1ccc(C(N)=O)c(F)c1)n1cc(OC)c(-c2cc(Cl)ccc2-n2cc(C(F)(F)F)nn2)cc1=O", "note": "[Compound A, (4S)-2^4-chloro-4-ethyl-7^3-fluoro-3^5-methoxy-3^2,5-dioxo-14-(trifluoromethyl)-3^2H-6-aza-3(4,1)-pyridina-1(1)-[1,2,3]triazola-2(1,2),7(1)-dibenzenaheptaphane-7^4-carboxamide]", "values": [{"measurement": "Incident covert brain infarcts on MRI, n participants", "result": "63 and 74"}, {"measurement": "Recurrent symptomatic ischemic stroke, incident covert brain infarct on MRI, cardiovascular death, myocardial infarction and systemic embolism, n participants", "result": "80 and 87 and 81"}, {"measurement": "Recurrent symptomatic ischemic stroke, vascular death, or myocardial infarction, % participants", "result": "(7%)"}, {"measurement": "Recurrent symptomatic ischemic stroke, vascular death, or myocardial infarction, n participants", "result": "33 and 30"}]}]}
